No constants are given. Whether binding was seen depends on the method and setting. Binding seen in cells or lysates may run through a third protein. A yes stands for co-enrichment or nearness to the bait. Other partners may have been found. A no says only that the protein was not detected with the bait.
B1: Utp22 (protein, UniProt P53254 1-1237)
chain: MATSVKRKASETSDQNIVKVQKKHSTQDSTTDNGSKENDHSSQAINERTVPEQENDESDTSPESNEVATNTAATRHNGKVTATESYDIHIARETAELFKSNIFKLQIDELLEQVKLKQKHVLKVEKFLHKLYDILQEIPDWEEKSLAEVDSFFKNKIVSVPFVDPKPIPQNTNYKFNYKKPDISLIGSFALKAGIYQPNGSSIDTLLTMPKELFEKKDFLNFRCLHKRSVYLAYLTHHLLILLKKDKLDSFLQLEYSYFDNDPLLPILRISCSKPTGDSLSDYNFYKTRFSINLLIGFPYKVFEPKKLLPNRNCIRIAQESKEQSLPATPLYNFSVLSSSTHENYLKYLYKTKKQTESFVEATVLGRLWLQQRGFSSNMSHSGSLGGFGTFEFTILMAALLNGGGINSNKILLHGFSSYQLFKGVIKYLATMDLCHDGHLQFHSNPENSSSSPASKYIDEGFQTPTLFDKSTKVNILTKMTVSSYQILKEYAGETLRMLNNVVQDQFSNIFLTNISRFDNLKYDLCYDVQLPLGKYNNLETSLAATFGSMERVKFITLENFLAHKITNVARYALGDRIKYIQIEMVGQKSDFPITKRKVYSNTGGNHFNFDFVRVKLIVNPSECDKLVTKGPAHSETMSTEAAVFKNFWGIKSSLRRFKDGSITHCCVWSTSSSEPIISSIVNFALQKHVSKKAQISNETIKKFHNFLPLPNLPSSAKTSVLNLSSFFNLKKSFDDLYKIIFQMKLPLSVKSILPVGSAFRYTSLCQPVPFAYSDPDFFQDVILEFETSPKWPDEITSLEKAKTAFLLKIQEELSANSSTYRSFFSRDESIPYNLEIVTLNILTPEGYGFKFRVLTERDEILYLRAIANARNELKPELEATFLKFTAKYLASVRHTRTLENISHSYQFYSPVVRLFKRWLDTHLLLGHITDELAELIAIKPFVDPAPYFIPGSLENGFLKVLKFISQWNWKDDPLILDLVKPEDDIRDTFETSIGAGSELDSKTMKKLSERLTLAQYKGIQMNFTNLRNSDPNGTHLQFFVASKNDPSGILYSSGIPLPIATRLTALAKVAVNLLQTHGLNQQTINLLFTPGLKDYDFVVDLRTPIGLKSSCGILSATEFKNITNDQAPSNFPENLNDLSEKMDPTYQLVKYLNLKYKNSLILSSRKYIGVNGGEKGDKNVITGLIKPLFKGAHKFRVNLDCNVKPVDDENVILNKEAIFHEIAAFGNDMVINFETD
B2: Mcm4 (protein, UniProt P30665 1-933)
chain: MSQQSSSPTKEDNNSSSPVVPNPDSVPPQLSSPALFYSSSSSQGDIYGRNNSQNLSQGEGNIRAAIGSSPLNFPSSSQRQNSDVFQSQGRQGRIRSSASASGRSRYHSDLRSDRALPTSSSSLGRNGQNRVHMRRNDIHTSDLSSPRRIVDFDTRSGVNTLDTSSSSAPPSEASEPLRIIWGTNVSIQECTTNFRNFLMSFKYKFRKILDEREEFINNTTDEELYYIKQLNEMRELGTSNLNLDARNLLAYKQTEDLYHQLLNYPQEVISIMDQTIKDCMVSLIVDNNLDYDLDEIETKFYKVRPYNVGSCKGMRELNPNDIDKLINLKGLVLRSTPVIPDMKVAFFKCNVCDHTMAVEIDRGVIQEPARCERIDCNEPNSMSLIHNRCSFADKQVIKLQETPDFVPDGQTPHSISLCVYDELVDSCRAGDRIEVTGTFRSIPIRANSRQRVLKSLYKTYVDVVHVKKVSDKRLDVDTSTIEQELMQNKVDHNEVEEVRQITDQDLAKIREVAAREDLYSLLARSIAPSIYELEDVKKGILLQLFGGTNKTFTKGGRYRGDINILLCGDPSTSKSQILQYVHKITPRGVYTSGKGSSAVGLTAYITRDVDTKQLVLESGALVLSDGGVCCIDEFDKMSDSTRSVLHEVMEQQTISIAKAGIITTLNARSSILASANPIGSRYNPNLPVTENIDLPPPLLSRFDLVYLVLDKVDEKNDRELAKHLTNLYLEDKPEHISQDDVLPVEFLTMYISYAKEHIHPIITEAAKTELVRAYVGMRKMGDDSRSDEKRITATTRQLESMIRLAEAHAKMKLKNVVELEDVQEAVRLIRSAIKDYATDPKTGKIDMNLVQTGKSVIQRKLQEDLSREIMNVLKDQASDSMSFNELIKQINEHSQDRVESSDIQEALSRLQQEDKVIVLGEGVRRSVRLNNRV
B3: Ylr419W (protein, UniProt Q06698 1-1435)
chain: MAKKTKNNSKSSTPVNDVPTTAGKKKAKGKKGQEPEPEDDKRAKQQSNRAKVTSTASWTGKLPHTILHETCQKRKWNKVEYDMKKIGDKGFIAIAVLSFTDPKTKETLTARMNDPTYDKASGKGLVIPQETPIEARHMASTIALYRIAYNTNLHMMLPPNHRKTWYALDDFRKDNLKTDEKRINKLFDLDPFKTMVEDRKLKAQREKEQVAQNNQAQKEQVARTILSSHGGISSSGKDRQERKVASHKNSHNPSLVRFPKKVWENSIFVDLDESSRQLIETSLKEKIDWQAKKISHKNETIAENREDLKAKLLTLQFRPKHVEEAMLYKDPLSFLLFNLPEDDLPPFFHKKKGDTKNKVEITNLPLSTRMIVERLTEIGVSSDEALLALQQNDMNENEAAGFLTREILPTLNSNTNEPVSETESIECWNQELESLESIYEGCVMDAKEDSHYTLNLIEKLKIKLKVYRTKNYPASLPGIVVSTFDKNYKLPDYIKKQILTRLLHYLQEGNLIGDMLVYHIYEWLKENISKIIDNPGPLIPDSDSKGAINKRNISNGKRSINNSSSRKFTKTTISEDTLSVLREEYTKRIKSSEYKSMQLVREQLPAWKKQKVIIDIINKNEVVLITGETGSGKSTQVVQFILDFLQKEKGDFGKTKIVCTQPRRISAIGLAERVSDERCVTCGEEVGYVIRGVNKTKASTRIKFMTTGVLVRLLQNARTMLENTIVVIDEVHERSIDTDLIVTLMKNLLHRVRGMKIVLMSATVNVDLFKKFFPGLATCHIEGRTFPITDYFLEDILSDLDFKIKREKALSYDDDSVDERNNDDQYLKPRADSKFFTSGQINYDLLCQVVEYVHKRLKAANDNGSIIVFLPGVGEINKCCNLLANKSNEADFMVLPLHSALTPEDQKRVFKKYHGKRKVVVSTNIAETSITIDDCVATIDTGRAKSMFYNPKDNTTKLIESFISKAEVKQRRGRAGRVREGLSYKLFSKNLYENDMISMPIPEIKRIPLESLYLSVKAMGIKDVKAFLSTALDAPPLPALQKAERILTTIGLVDESDKSLTQLGQFISLMPVMDSKHGKLLIYGILFGCTDISVLLVSILGIGVLPFIGGFENREKIKKLLCKYESRGDLFAVLEIVRDYFKIKDSSIKRKYLRDNLLSYNKINEIKSSTAQYYSILKDVGFLPMDYKVGSISDLNRNERNFDILRAILTGAFYPHIARVQLPDVKYLSTSSGAVEKDPEAKMIKYWIRSEEYQDKLEEYKTKISQETQKVDLEDLPLPATRAFIHPSSVLFSTNSVNLEDAKLLSEVDGPISRQSKIPTVVKYPFVLFTTSQVTNKLYLRDLTPTTTLSLLLFGGAISYDIGGTIHSPGIVVDNWLPIRTWCKNGVLIKELRTQLDEAIRKKLESPDYAKKSQIDNSGADKTLKIVEKIIASEQ
B4: Ipl1 (protein, UniProt P38991 1-367)
chain: MQRNSLVNIKLNANSPSKKTTTRPNTSRINKPWRISHSPQQRNPNSKIPSPVREKLNRLPVNNKKFLDMESSKIPSPIRKATSSKMIHENKKLPKFKSLSLDDFELGKKLGKGKFGKVYCVRHRSTGYICALKVMEKEEIIKYNLQKQFRREVEIQTSLNHPNLTKSYGYFHDEKRVYLLMEYLVNGEMYKLLRLHGPFNDILASDYIYQIANALDYMHKKNIIHRDIKPENILIGFNNVIKLTDFGWSIINPPENRRKTVCGTIDYLSPEMVESREYDHTIDAWALGVLAFELLTGAPPFEEEMKDTTYKRIAALDIKMPSNISQDAQDLILKLLKYDPKDRMRLGDVKMHPWILRNKPFWENKRL

The chains behind the UniProt entries cited, without tags or fusion partners.
UniProt P35637: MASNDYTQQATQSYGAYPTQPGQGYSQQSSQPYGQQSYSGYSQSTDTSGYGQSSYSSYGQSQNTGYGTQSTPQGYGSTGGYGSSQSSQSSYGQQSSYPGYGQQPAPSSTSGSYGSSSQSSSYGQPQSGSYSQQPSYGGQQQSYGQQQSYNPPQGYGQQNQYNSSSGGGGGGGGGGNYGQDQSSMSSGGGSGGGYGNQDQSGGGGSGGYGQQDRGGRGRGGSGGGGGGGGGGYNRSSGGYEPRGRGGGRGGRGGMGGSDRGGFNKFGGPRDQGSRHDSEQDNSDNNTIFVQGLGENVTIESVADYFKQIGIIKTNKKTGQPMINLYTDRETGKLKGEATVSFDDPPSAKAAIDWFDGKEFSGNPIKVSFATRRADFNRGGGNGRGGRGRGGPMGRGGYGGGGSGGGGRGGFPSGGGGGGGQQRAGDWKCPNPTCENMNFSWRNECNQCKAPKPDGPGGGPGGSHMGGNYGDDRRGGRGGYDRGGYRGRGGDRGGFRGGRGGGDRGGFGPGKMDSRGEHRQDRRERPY
UniProt P24784: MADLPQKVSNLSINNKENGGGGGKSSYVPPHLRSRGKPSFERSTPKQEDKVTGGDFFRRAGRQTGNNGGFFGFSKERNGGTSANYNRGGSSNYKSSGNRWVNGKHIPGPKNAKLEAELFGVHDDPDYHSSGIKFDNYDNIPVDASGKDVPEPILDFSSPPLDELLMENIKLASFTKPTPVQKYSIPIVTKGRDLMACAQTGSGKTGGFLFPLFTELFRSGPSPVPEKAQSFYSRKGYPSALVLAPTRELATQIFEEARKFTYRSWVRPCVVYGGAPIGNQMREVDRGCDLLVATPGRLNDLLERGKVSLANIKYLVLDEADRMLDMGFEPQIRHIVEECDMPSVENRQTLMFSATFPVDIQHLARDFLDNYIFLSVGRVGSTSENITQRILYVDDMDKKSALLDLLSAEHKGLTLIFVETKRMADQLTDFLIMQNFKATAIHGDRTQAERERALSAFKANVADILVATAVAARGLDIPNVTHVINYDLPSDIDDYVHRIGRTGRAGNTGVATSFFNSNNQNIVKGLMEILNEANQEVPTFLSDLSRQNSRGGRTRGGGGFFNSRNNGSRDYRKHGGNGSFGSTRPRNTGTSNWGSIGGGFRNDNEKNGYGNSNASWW
UniProt P24783: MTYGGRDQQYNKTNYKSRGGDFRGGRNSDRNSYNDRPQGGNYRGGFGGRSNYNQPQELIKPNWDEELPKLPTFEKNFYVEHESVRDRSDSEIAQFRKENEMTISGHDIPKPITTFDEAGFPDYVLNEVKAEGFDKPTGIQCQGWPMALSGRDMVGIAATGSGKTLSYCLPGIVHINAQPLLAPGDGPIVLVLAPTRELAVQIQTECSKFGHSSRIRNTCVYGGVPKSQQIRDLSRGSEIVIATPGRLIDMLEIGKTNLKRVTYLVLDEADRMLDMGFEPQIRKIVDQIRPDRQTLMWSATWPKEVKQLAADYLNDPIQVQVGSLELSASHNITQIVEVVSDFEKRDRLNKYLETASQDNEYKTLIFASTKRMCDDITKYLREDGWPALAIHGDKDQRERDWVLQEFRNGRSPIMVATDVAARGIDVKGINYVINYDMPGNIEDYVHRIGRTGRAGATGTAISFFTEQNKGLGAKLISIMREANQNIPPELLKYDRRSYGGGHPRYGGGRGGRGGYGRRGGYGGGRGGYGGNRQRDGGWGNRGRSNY
UniProt P06634: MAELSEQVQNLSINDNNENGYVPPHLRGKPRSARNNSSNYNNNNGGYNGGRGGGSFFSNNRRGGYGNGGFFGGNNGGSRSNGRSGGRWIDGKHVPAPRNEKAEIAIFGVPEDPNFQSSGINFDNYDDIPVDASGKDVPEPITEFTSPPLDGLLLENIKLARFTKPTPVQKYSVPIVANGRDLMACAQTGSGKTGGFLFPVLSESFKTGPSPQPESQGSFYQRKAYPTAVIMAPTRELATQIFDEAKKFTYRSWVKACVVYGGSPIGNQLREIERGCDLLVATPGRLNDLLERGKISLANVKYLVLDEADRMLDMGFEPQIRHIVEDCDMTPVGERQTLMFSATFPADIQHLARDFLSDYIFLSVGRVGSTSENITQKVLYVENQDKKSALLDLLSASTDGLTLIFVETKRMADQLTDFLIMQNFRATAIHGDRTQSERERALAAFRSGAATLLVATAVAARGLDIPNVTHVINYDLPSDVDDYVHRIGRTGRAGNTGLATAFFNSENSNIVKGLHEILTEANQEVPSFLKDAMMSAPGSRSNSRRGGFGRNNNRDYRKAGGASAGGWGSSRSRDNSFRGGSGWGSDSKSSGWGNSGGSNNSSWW
UniProt P15646: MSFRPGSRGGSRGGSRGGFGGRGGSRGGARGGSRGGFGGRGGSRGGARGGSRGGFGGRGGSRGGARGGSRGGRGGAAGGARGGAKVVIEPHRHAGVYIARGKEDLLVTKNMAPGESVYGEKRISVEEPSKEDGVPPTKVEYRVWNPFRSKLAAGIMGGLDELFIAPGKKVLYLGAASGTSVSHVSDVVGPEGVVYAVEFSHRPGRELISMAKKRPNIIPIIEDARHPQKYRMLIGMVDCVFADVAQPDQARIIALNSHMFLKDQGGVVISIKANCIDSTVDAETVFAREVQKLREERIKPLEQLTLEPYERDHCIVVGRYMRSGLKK
UniProt Q12460: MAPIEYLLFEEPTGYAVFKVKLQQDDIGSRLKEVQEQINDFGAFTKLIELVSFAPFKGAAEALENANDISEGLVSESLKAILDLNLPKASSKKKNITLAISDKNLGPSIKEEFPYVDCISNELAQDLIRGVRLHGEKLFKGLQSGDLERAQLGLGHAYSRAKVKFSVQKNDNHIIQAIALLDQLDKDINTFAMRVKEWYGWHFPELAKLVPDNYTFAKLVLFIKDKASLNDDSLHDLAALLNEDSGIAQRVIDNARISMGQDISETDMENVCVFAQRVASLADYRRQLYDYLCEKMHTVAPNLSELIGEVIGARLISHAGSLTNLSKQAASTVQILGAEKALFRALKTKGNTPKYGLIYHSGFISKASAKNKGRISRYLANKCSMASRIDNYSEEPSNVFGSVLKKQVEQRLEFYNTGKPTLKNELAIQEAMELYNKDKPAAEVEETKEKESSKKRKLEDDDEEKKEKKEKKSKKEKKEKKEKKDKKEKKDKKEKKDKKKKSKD
UniProt P53131: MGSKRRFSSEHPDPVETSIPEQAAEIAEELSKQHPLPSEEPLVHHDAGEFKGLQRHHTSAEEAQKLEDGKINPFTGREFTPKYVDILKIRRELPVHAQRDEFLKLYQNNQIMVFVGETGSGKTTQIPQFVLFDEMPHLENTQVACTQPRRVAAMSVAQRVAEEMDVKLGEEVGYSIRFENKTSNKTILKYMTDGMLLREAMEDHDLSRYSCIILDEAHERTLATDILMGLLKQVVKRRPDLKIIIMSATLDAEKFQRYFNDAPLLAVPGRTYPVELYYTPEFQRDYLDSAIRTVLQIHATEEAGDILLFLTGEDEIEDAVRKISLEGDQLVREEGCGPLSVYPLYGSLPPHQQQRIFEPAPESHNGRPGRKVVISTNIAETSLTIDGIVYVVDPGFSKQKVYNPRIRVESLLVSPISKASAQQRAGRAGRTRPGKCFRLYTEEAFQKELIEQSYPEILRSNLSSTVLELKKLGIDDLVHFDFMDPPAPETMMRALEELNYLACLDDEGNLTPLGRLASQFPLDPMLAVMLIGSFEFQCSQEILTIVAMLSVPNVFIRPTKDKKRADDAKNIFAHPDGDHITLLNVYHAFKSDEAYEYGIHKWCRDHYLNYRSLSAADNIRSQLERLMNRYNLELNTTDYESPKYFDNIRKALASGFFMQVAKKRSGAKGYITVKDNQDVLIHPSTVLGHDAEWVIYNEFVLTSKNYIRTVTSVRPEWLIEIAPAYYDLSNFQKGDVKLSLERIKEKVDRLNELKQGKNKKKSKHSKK
UniProt Q07794: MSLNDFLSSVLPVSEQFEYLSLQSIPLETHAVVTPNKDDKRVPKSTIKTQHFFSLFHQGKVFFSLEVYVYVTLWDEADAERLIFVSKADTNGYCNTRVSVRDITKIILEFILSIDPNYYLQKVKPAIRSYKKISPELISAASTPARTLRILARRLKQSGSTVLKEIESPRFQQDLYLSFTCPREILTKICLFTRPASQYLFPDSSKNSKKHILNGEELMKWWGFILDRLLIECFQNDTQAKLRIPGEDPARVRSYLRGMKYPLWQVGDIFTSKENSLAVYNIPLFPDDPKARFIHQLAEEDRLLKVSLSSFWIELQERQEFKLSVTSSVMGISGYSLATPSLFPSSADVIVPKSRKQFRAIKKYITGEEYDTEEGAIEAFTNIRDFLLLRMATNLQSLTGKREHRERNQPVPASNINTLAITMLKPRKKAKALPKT
UniProt P02994: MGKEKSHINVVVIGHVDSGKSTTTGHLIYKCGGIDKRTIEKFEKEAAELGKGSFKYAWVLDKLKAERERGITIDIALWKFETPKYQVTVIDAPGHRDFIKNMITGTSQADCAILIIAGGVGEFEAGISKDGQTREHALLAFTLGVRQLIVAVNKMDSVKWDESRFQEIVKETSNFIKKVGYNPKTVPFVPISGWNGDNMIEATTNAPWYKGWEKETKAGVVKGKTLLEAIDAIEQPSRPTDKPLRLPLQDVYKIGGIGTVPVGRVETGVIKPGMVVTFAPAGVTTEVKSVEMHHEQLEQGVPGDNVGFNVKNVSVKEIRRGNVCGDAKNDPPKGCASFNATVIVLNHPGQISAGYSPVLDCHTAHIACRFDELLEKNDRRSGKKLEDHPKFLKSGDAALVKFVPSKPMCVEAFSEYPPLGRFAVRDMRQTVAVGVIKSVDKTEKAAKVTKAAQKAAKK
UniProt P42945: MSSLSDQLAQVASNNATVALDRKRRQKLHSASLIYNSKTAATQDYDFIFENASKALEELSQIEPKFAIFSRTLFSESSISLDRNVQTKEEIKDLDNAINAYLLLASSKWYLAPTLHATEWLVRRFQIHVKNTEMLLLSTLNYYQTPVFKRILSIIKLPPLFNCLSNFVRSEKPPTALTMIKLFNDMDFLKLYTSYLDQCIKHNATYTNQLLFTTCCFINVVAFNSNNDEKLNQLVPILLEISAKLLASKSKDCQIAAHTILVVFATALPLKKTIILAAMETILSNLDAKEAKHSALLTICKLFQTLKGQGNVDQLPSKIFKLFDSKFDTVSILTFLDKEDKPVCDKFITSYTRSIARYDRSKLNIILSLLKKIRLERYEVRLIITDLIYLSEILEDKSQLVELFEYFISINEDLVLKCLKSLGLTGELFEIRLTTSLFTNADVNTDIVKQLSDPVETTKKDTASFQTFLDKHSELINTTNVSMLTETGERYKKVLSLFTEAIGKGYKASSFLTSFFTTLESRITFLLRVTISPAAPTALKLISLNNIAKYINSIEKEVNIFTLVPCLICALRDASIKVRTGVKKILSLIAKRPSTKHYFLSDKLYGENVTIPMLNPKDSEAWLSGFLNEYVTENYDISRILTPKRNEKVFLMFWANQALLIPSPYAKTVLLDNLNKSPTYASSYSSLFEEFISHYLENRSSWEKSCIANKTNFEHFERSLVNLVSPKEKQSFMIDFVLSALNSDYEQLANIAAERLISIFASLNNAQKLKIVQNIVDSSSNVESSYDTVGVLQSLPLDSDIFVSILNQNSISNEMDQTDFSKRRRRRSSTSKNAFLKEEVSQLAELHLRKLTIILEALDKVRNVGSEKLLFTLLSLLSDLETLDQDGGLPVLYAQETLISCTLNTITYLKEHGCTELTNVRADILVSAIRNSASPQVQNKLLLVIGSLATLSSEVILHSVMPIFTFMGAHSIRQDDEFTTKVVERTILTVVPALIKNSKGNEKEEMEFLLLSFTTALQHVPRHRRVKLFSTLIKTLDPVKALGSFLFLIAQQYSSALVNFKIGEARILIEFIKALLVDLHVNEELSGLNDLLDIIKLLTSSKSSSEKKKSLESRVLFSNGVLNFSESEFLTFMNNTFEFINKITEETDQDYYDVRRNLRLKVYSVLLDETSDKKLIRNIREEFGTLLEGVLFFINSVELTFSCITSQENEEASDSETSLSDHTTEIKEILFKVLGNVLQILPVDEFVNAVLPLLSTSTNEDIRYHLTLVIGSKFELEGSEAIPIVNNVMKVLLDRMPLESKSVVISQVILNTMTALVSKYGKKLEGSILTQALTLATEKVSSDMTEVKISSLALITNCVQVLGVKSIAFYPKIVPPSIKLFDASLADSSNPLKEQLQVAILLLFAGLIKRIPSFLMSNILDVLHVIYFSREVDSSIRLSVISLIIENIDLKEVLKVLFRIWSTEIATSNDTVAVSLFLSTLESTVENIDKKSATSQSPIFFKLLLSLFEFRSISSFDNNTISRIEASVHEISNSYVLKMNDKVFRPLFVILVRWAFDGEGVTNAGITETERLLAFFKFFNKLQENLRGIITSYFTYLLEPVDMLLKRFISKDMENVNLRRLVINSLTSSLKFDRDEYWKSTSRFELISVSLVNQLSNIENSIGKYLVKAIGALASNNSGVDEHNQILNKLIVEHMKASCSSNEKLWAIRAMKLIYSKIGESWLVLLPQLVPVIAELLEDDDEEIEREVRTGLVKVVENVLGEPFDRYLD

target: Fused in Sarcoma (FUS) (UniProt P35637); assay: affinity purification with mass spectrometry; rabbit polyclonal FUS antibody covalently attached to magnetic beads (M270 Dynabeads), incubated with lysates of W303 yeast overexpressing FUS; controls: lysate without FUS and naked beads; two independent Co-IPs, tandem MS; hits: over 40 peptide spectrum matches, at least two-fold enrichment over both controls, found in both trials

Molecule	binding
Dbp1 (from UniProt P24784 1-617)	binds
Dbp2 (from UniProt P24783 1-546)	binds
Ded1 (from UniProt P06634 1-604)	binds
Nop1 (from UniProt P15646 1-327)	binds
Nop56 (from UniProt Q12460 1-504)	binds
Prp43 (from UniProt P53131 1-767)	binds
Rrp5 (from UniProt Q05022 1-1729)	binds
Rtt109 (from UniProt Q07794 1-436)	no binding
Ssa1 (from UniProt P10591 1-642)	binds
Tef1 (from UniProt P02994 1-458)	binds
Utp10 (from UniProt P42945 1-1769)	binds
B1	binds
B2	binds
B3	binds
B4	no binding

— publication PMC11766905
